Data on 40 molecules can be found in the supplement of paper PMC8256030.

Values joined by “and” are separate entries in the source; they are usually repeats but may differ in a detail not shown here. Identical values can stand only once. This is one part of the list. Single values are uncertain here, since repeats match poorly.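 HEK293T cells were given each compound shortly before transfection with a reporter in which red mCherry is followed by the SARS-CoV-2 frameshift element and then GFP in the −1 frame, so GFP appears only after frameshifting.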

For the test, the system named is HEK293T. Nature of the test: percent viability (nuclei count) relative to control; higher = more viable cells. As to conditions: 10 µM; 24 h.
`O=C(O)Cc1ccccc1Oc1ccc(Cl)cc1Cl` [fenclofenac]: the percent viability is 394%.

For `NS(=O)(=O)c1cc2c(cc1Cl)NC(CSCc1ccccc1)NS2(=O)=O` (stereo not given) [hydrobentizide], the percent viability worked out at 190%.

As for `CN1[C@@H]2CC[C@H]1C[C@@H](OC(=O)c1c[nH]c3ccccc13)C2`, the percent viability was found to be 166%.

Consider `C[C@@](Cc1ccc(O)c(O)c1)(NN)C(=O)O` [carbidopa], for which the percent viability was 259% and 308%.

As for `OCCN1CCN(CC/C=C2/c3ccccc3Sc3ccc(Cl)cc32)CC1` [zuclopenthixol], the percent viability was 559%.

In the case of `CC[C@@H](CO)NCCN[C@@H](CC)CO` [ethambutol], the percent viability amounted to 136%.

On to `Cc1ccnc2c1CCCC2C(N)=S` (stereo not given) [isotiquimide], for which the percent viability was determined as 274%.

As for `OC[C@@H](O)[C@@H](O)[C@H](O)[C@H](O)CO`, the percent viability stood at 145%.

In the case of `Cc1cc(=O)oc2cc(OS(=O)(=O)O)c(OS(=O)(=O)O)cc12` [sulmarin], the percent viability is 305%.

On to `CC1(C)OC(=O)NC1=O` [dimethadione], for which the percent viability stood at 97.8%.

Turning to `O=C(OCC(O)CO)c1ccccc1Nc1ccnc2c(C(F)(F)F)cccc12` (stereo not given) [floctafenine], the percent viability stood at 158%.

On to `CC(C)Nc1nc2cc(Cl)c(Cl)cc2n1[C@H]1O[C@@H](CO)[C@H](O)[C@@H]1O` [maribavir], for which the percent viability amounted to 41.6%.

As for `COc1ccc(CCN(C)CCCC(C#N)(c2ccc(OC)c(OC)c2)C(C)C)cc1OC` (stereo not given) [verapamil], the percent viability was 180% and 314%.

With `CN[C@H](CC(C)C)C(=O)N[C@H]1C(=O)N[C@@H](CC(N)=O)C(=O)N[C@H]2C(=O)N[C@H]3C(=O)N[C@H](C(=O)N[C@H](C(=O)O)c4cc(O)cc(O)c4-c4cc3ccc4O)[C@H](O)c3ccc(c(Cl)c3)Oc3cc2cc(c3O[C@@H]2O[C@H](CO)[C@@H](O)[C@H](O)[C@H]2O[C@H]2C[C@](C)(N)[C@H](O)[C@H](C)O2)Oc2ccc(cc2Cl)[C@H]1O` [Vancocin], the percent viability worked out at 247%.

Turning to `O=C(CCCCC(=O)Nc1c(I)cc(I)c(C(=O)O)c1I)Nc1c(I)cc(I)c(C(=O)O)c1I`, the percent viability worked out at 128%.

`CC(C(=O)O)c1ccc(N2Cc3ccccc3C2=O)cc1` (stereo not given) [indoprofen]: the percent viability stood at 149%.

Take `COCc1c(C(C)C)nc(C(C)C)c(/C=C/[C@@H](O)C[C@@H](O)CC(=O)O)c1-c1ccc(F)cc1` [Cerivastatin]: the percent viability turned out to be 42.7%.

On to `Cc1cc2nc3c(=O)[nH]c(=O)nc-3n(C[C@H](O)[C@H](O)[C@H](O)COP(=O)(O)O)c2cc1C`, for which the percent viability was found to be 142%.

Regarding `S=c1[nH]cnc2nc[nH]c12`, the percent viability stood at 144%.

With `CC[N+](CC)(CC)CCOC(=O)c1cc(OC)c(OC)c(OC)c1` [troxonium tosilate], the percent viability turned out to be 92.1%.

Regarding `CN1C2CCCC1CC(NC(=O)c1nn(C)c3ccccc13)C2` (stereo not given) [Granisetron], the percent viability was 270%.

Take `CCCNC(C)(C)COC(=O)c1ccccc1`: the percent viability is 322%.

On to `O=C1CC[C@@H](C(=O)O)N1` [pidolic acid], for which the percent viability amounted to 401%.

With `O=C1C(=O)c2ccccc2C(O)=C1C1CCC(c2ccc(Cl)cc2)CC1` (stereo not given) [Atovaquone], the percent viability was 174%.

Turning to `COC(F)(F)C(Cl)Cl` [methoxyflurane], the percent viability came out at 216%.

For the molecule `N[C@@H](CC(=O)O)C(=O)O` [aspartic acid], the percent viability came to 113%.

As for `C[C@@H]1NC(=O)[C@@H](N)CNC(=O)[C@H](C2CCNC(=N)N2)NC(=O)/C(=C/NC(N)=O)NC(=O)[C@H](CNC(=O)CC(N)CCCN)NC1=O.N=C1NCCC([C@@H]2NC(=O)/C(=C/NC(N)=O)NC(=O)[C@H](CNC(=O)CC(N)CCCN)NC(=O)[C@H](CO)NC(=O)[C@@H](N)CNC2=O)N1` (stereo not given in full), the percent viability turned out to be 303%.

With `COc1ccc2c(c1)N(C[C@H](C)CN(C)C)c1ccccc1S2` [Levoprome], the percent viability came out at 329%.

As to `CCc1cn([C@H]2C[C@H](O)[C@@H](CO)O2)c(=O)[nH]c1=O`, the percent viability was found to be 67.4%.

Turning to `CN(C)CCC=C1c2ccccc2CCc2ccccc21` [amitriptyline], the percent viability was 353% and 316%.

With `CCCCCCn1c(=O)c2c(ncn2C)n(C)c1=O` [pentifylline], the percent viability worked out at 101%.

In the case of `Nc1ccc(C(=O)O)cc1`, the percent viability came out at 183%.

On to `CNCCCC12CCC(c3ccccc31)c1ccccc12` [maprotiline], for which the percent viability was 374% and 209%.

Consider `NC(=O)Nc1ccc(S(=O)(=O)c2ccc(N)cc2)cc1` [amidapsone], for which the percent viability was found to be 113%.

Regarding `COc1ccc(CN2CCN(C(c3ccc(F)cc3)c3ccc(F)cc3)CC2)c(OC)c1OC` [lomerizine], the percent viability is 168% and 159%.

In the case of `CCC(C)(C)NCC(O)COc1ccccc1C#N` (stereo not given) [penirolol], the percent viability was found to be 298%.

On to `CNC(=C[N+](=O)[O-])NCCSCc1csc(CN(C)C)n1`, for which the percent viability is 162%.

Regarding `CCN(CC)CC#CCOC(=O)C(O)(c1ccccc1)C1CCCCC1` (stereo not given), the percent viability amounted to 369%.

As for `CCC/C=C\C=C/C(=O)N[C@@H](CC(N)=O)C(=O)NC(CC(N)=O)C(=O)N[C@@H](C(=O)N[C@H](CCCN)C(=O)N[C@@H](C(=O)N[C@@H](C(=O)N[C@@H](C(=O)N[C@H](C(=O)N[C@@H](Cc1ccccc1)C(=O)N[C@H](CCCN)C(=O)NC(C(=O)N[C@H](C(=O)NC(C(=O)NCC(=O)N[C@@H](CC(C)C)C(=O)N[C@H](C)C(=O)NC(C(=O)O)C1CCC(O)C(Cl)C1)C1CCC(O)CC1)[C@H](C)O)C1CCC(O)CC1)[C@H](C)O)C1CCC(O)CC1)C1CCC(O)CC1)[C@H](C)O)C1CCC(O)CC1` (stereo not given in full), the percent viability worked out at 176%.

As for `O=C(NCCO[N+](=O)[O-])c1cccnc1` [nicorandil], the percent viability was 156%.
